For assay [1], the target named is GST‐MxiI^L26A (Shigella flexneri) (UniProt P0A225). Kind of assay: pull-down; GST‐MxiI or its derivatives bound to glutathione‐Sepharose 4B beads and washed with PBS; incubated 16 hr at 4°C with cleared extract of E. coli expressing the His‐tagged protein; eight washes; eluted with 40 mmol/L Tris pH 8.0, 500 mmol/L NaCl, 50 mmol/L reduced glutathione; Coomassie staining and anti‐His Western blot; only the target purified.

Protein sequences, listed by entry. Tags and fused reporters are not part of them.
UniProt Q04640: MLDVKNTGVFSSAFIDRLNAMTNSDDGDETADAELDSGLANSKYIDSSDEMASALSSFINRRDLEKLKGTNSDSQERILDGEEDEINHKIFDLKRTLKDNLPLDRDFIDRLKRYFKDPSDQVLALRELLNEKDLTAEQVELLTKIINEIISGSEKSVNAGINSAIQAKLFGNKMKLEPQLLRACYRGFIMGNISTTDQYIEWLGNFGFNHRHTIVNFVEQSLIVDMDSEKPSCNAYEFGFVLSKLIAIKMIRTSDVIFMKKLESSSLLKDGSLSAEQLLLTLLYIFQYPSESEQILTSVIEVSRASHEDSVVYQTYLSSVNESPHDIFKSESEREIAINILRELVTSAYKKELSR

Assay [2] addresses GST‐MxiC (Shigella flexneri) (UniProt Q04640). The experiment in a line: pull-down; reverse set-up: GST‐MxiC as GST fusion, MxiI and its variants fused to a His‐tag (pET30a‐mxiI); Figure S3; only the target purified.

The record followed here is article PMC5822323.

Results are given in words; binding and its absence hold for the method and conditions named. In cells and extracts the contact can be indirect.

Turning to “His‐Spa40CN (from UniProt Q6XVW1 205-258) (domain or fragment)”, in assay [1], the binding result was “no binding”.

On to “His‐tagged MxiI^T82R (pET30a‐MxiI, mutated) (from UniProt P0A225 1-97)”, for which the binding result in assay [2] is listed as “no binding”.

As to “His‐Spa40CT (from UniProt Q6XVW1 205-342) (domain or fragment)”, in assay [1], the binding result is “no binding”.

Turning to “His‐tagged MxiI^T82K (pET30a‐MxiI, mutated) (from UniProt P0A225 1-97)”, the binding result in assay [2] is “no binding”.
